# PubChem BioAssay (EPA / NIEHS)
# Amino acid sequences for entries named in this document (tags omitted). A change or cut given only in a name is not applied to a line headed by its entry.
# UniProt Q13464: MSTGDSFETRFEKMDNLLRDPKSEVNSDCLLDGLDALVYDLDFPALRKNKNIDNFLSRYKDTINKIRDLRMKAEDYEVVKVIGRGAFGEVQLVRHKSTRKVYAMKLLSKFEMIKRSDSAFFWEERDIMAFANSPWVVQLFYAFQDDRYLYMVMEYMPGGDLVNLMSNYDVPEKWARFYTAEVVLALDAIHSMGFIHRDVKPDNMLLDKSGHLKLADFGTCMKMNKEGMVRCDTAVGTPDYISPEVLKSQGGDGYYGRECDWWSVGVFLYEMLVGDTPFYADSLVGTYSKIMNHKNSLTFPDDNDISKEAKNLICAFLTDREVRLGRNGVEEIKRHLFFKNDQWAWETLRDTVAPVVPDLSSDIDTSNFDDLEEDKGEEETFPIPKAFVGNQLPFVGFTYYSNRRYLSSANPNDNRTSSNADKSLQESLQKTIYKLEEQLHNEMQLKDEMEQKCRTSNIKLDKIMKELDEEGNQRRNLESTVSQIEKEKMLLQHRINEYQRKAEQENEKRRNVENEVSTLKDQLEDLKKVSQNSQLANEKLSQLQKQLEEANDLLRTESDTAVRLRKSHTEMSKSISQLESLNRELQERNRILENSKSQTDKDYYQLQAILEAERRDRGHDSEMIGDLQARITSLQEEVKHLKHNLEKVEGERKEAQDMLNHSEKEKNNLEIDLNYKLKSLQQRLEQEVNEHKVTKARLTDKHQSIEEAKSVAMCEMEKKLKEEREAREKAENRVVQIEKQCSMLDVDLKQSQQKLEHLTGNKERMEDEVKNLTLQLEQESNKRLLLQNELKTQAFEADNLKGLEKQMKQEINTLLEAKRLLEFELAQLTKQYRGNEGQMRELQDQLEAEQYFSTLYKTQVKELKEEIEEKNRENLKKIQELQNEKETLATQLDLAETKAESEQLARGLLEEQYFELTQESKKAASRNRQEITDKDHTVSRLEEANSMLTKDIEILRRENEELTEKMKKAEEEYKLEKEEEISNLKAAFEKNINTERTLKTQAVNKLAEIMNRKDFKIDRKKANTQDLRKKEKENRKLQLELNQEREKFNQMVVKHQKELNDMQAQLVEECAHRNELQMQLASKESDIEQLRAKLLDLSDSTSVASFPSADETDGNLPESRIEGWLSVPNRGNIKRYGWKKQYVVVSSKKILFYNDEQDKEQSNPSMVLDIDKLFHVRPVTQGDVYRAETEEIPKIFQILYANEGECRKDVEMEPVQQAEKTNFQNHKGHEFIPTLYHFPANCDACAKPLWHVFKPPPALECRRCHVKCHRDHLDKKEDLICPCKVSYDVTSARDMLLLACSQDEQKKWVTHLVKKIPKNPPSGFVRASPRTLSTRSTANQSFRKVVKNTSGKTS
# UniProt Q8IXJ6: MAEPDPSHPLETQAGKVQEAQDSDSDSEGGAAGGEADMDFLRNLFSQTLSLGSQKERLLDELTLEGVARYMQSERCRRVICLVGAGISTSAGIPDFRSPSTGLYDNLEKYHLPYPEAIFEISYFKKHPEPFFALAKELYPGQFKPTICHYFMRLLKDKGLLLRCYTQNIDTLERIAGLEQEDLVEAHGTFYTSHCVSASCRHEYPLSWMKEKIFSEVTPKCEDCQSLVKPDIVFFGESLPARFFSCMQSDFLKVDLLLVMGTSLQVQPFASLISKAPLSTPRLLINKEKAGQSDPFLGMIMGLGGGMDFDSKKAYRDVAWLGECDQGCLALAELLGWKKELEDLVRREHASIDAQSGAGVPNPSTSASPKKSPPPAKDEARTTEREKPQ
# UniProt P10586, whole entry, looked up: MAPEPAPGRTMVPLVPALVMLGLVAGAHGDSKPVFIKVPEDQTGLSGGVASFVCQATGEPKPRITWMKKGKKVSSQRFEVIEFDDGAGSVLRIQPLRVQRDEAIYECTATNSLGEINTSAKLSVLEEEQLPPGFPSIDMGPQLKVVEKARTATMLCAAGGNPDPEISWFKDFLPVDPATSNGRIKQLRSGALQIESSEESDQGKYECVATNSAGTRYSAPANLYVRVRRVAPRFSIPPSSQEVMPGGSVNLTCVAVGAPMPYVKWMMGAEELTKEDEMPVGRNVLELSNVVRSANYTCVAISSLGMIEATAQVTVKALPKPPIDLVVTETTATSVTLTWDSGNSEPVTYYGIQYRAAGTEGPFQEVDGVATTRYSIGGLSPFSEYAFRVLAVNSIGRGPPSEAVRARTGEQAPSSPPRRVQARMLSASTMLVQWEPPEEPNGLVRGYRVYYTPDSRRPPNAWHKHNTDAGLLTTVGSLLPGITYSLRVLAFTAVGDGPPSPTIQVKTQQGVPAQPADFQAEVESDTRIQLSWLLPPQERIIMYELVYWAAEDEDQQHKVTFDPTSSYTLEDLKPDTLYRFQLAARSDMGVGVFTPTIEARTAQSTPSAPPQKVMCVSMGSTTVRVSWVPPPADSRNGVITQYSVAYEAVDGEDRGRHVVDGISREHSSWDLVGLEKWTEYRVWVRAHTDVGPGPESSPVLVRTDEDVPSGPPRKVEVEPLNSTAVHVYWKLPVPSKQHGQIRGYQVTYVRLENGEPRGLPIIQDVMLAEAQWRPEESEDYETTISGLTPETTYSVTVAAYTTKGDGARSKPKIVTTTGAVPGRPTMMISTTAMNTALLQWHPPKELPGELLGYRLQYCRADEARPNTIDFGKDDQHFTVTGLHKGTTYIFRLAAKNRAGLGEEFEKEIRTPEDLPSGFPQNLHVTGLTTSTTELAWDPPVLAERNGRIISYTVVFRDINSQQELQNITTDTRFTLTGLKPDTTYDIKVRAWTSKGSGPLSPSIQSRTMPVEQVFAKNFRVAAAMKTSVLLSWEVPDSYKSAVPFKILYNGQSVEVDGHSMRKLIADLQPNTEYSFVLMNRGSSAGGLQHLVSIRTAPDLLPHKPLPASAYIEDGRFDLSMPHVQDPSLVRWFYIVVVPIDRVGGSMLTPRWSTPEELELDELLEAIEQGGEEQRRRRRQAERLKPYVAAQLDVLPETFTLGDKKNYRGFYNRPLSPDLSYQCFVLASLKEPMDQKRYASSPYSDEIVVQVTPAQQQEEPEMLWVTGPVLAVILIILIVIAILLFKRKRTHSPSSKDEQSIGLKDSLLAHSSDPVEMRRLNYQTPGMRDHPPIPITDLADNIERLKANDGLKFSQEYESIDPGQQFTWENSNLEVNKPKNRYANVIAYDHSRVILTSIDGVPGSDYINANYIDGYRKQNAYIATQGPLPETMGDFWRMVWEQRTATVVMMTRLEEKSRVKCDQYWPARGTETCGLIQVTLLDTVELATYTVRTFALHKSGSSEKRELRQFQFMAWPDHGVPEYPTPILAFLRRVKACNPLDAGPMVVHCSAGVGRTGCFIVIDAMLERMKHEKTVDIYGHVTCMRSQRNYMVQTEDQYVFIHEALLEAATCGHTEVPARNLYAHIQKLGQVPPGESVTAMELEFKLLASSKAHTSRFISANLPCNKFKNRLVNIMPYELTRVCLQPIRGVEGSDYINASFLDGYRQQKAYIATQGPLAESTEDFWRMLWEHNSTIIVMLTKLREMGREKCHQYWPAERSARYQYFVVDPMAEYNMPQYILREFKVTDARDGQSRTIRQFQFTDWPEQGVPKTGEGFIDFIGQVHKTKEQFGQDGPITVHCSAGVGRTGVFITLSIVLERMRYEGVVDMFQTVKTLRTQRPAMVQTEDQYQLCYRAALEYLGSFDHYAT
# UniProt Q96EB6: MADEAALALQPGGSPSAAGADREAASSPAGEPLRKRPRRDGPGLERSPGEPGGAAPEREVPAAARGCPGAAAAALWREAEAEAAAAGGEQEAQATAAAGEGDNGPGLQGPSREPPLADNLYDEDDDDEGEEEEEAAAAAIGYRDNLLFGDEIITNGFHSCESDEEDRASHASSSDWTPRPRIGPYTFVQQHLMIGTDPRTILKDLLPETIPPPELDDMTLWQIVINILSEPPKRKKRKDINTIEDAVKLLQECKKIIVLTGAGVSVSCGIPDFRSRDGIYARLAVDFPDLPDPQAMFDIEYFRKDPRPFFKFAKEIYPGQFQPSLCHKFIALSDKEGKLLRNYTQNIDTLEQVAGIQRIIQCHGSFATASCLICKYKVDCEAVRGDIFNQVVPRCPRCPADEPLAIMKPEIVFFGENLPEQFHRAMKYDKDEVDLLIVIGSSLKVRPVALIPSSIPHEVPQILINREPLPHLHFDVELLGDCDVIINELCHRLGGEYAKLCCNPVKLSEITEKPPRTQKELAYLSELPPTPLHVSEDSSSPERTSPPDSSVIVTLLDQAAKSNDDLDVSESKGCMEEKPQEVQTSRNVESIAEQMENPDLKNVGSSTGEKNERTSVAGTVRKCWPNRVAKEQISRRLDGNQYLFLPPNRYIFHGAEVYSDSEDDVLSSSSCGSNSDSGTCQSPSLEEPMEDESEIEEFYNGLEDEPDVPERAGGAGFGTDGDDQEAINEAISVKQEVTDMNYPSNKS
# UniProt P23467: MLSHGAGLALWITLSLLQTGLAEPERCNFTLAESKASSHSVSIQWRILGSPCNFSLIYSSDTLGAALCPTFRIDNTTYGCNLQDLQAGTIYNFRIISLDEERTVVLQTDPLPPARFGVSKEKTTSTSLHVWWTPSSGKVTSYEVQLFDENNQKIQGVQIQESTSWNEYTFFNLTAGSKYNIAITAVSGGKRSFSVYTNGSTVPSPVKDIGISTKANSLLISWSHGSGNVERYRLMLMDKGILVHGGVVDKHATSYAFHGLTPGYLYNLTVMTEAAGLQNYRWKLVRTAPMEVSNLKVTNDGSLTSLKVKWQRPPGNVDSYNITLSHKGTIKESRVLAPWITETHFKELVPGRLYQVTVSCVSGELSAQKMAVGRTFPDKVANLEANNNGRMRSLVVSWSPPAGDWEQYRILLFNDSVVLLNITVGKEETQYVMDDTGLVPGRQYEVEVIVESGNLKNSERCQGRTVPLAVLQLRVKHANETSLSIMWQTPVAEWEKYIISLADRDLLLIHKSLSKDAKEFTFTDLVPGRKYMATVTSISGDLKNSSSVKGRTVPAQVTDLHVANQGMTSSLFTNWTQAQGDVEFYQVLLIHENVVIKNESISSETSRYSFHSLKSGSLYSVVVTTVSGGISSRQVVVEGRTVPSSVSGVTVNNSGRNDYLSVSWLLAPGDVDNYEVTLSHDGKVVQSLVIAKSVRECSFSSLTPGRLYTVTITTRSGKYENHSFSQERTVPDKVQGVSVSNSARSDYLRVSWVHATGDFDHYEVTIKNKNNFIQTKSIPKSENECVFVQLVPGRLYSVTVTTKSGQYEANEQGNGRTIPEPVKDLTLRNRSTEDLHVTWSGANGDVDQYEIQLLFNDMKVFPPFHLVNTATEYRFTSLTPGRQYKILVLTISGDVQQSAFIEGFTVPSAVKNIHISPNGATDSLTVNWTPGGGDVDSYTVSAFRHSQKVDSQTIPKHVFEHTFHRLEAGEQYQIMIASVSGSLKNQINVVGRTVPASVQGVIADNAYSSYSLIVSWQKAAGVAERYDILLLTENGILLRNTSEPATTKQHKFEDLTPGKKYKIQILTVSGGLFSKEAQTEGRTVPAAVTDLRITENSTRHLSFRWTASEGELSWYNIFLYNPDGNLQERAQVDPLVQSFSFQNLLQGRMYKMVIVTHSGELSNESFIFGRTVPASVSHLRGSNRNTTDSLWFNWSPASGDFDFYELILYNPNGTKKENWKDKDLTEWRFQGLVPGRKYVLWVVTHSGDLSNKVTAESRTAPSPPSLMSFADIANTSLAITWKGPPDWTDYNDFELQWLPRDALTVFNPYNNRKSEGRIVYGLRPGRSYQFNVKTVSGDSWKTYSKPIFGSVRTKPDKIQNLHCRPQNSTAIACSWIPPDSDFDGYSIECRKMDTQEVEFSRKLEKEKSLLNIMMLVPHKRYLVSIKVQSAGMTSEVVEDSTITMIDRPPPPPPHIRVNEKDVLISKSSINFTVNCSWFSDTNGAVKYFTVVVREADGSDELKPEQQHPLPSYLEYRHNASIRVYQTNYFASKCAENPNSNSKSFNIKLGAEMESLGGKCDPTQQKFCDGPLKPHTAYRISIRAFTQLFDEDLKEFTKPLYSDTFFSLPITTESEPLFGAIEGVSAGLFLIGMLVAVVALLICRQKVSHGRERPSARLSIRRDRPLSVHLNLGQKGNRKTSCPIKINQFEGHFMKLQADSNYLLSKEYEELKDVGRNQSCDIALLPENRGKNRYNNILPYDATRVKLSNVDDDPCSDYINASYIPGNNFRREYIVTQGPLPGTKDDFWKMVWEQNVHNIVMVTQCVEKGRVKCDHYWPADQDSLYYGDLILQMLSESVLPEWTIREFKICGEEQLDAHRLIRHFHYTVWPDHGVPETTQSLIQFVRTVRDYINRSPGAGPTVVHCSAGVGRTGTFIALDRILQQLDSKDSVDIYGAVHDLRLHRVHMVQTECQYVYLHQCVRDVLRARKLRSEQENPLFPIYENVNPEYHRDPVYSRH
# Inconclusive means that the source gave no clear call. Such entries were picked first, then a sample of the others. For some assays here: Potencies beside an inconclusive call are fits to weak or partial responses and may not hold up. Calls of active or inactive are those of the source. The calls were made as follows: active = hit-call score of the fitted dose curve at least 0.9, where 1 is the maximum; inconclusive = response in the unintended direction; inactive = score below 0.9.
# What was measured:
# [1] = biological target: human Rho Associated Coiled-coil Containing Protein Kinase 1 (ROCK1), ROCK1 (gene 6093) (UniProt Q13464); test: NVS_ENZ_hROCK1: NovaScreen (NVS) Enzymatic Assay for human Rho Associated Coiled-coil Containing Protein Kinase 1 (ROCK1) (AID 2283214)
# How it was run: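 Cell-free recombinant human ROCK1 activity assay; fluorescent substrate and product separated by electrophoretic mobility shift, read 1 h after dosing. Screened in duplicate at 25 uM; loss of signal versus DMSO baseline scored as inhibition.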
# [2] = biological target: human SRC Proto-Oncogene, Non-receptor Tyrosine Kinase (SRC), SRC (gene 6714) (UniProt P12931); test: NVS_ENZ_hSRC: NovaScreen (NVS) Enzymatic Assay for human SRC Proto-Oncogene, Non-receptor Tyrosine Kinase (SRC) (AID 2283223)
# How it was run: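 Cell-free kinase activity assay with fluorescent substrate, product separated by electrophoretic mobility shift, read 1 h after dosing. Duplicate single point at 25 uM, then concentration-response up to 50 uM; loss of signal versus DMSO.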
# [3] = biological target: human Sirtuin 2 (SIRT2), SIRT2 (gene 22933) (UniProt Q8IXJ6); test: NVS_ENZ_hSIRT2: NovaScreen (NVS) Enzymatic Assay for human Sirtuin 2 (SIRT2) (AID 2283217)
# How it was run: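 Cell-free recombinant human SIRT2, fluorescent substrate with product separated by electrophoretic mobility shift, 1 hr. Screened in duplicate at 25 uM; hits rerun singly in concentration-response up to 50 uM, relative to DMSO.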
# [4] = biological target: human Sirtuin 3 (SIRT3), SIRT3 (gene 23410) (UniProt Q9NTG7); test: NVS_ENZ_hSIRT3: NovaScreen (NVS) Enzymatic Assay for human Sirtuin 3 (SIRT3) (AID 2283222)
# How it was run: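 Cell-free enzyme assay with recombinant protein and fluorescent substrate, product separated by electrophoretic mobility shift; read 1 hour after dosing. Screened in duplicate at 25 uM, then singleton concentration-response up to 50 uM; loss of signal versus DMSO.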
# [5] = biological target: human Protein Tyrosine Phosphatase Receptor Type F (PTPRF), PTPRF (gene 5792) (UniProt P10586); test: NVS_ENZ_hPTPRF: NovaScreen (NVS) Enzymatic Assay for human Protein Tyrosine Phosphatase Receptor Type F (PTPRF) (AID 2283213)
# How it was run: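 Cell-free fluorescence enzyme assay with recombinant protein and substrate; product separated by electrophoretic mobility shift. Read 1 h after dosing, single 25 uM duplicate screen, then concentration-response up to 50 uM; loss of signal vs DMSO.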
# [6] = biological target: human Sirtuin 1 (SIRT1), SIRT1 (gene 23411) (UniProt Q96EB6); test: NVS_ENZ_hSIRT1: NovaScreen (NVS) Enzymatic Assay for human Sirtuin 1 (SIRT1) (AID 2283219)
# How it was run: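 Cell-free recombinant SIRT1 with a fluorescent substrate; substrate and product separated by electrophoretic mobility shift and read by fluorescence intensity, 1 h after dosing. Primary screen at 25 uM in duplicate; hits re-run in concentration-response up to 50 uM, relative to DMSO.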
# [7] = biological target: human Protein Tyrosine Phosphatase Receptor Type B (PTPRB), PTPRB (gene 5787) (UniProt P23467); test: NVS_ENZ_hPTPRB: NovaScreen (NVS) Enzymatic Assay for human Protein Tyrosine Phosphatase Receptor Type B (PTPRB) (AID 2283211)
# How it was run: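 Recombinant human PTPRB with a fluorescent substrate, product separated by electrophoretic mobility shift; read 1 h after dosing. Primary screen in duplicate at 25 uM; actives then retested in concentration series; loss of signal versus DMSO.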
# [8] = biological target: human Protein Tyrosine Phosphatase Receptor Type M (PTPRM), PTPRM (gene 5797) (UniProt P28827); test: NVS_ENZ_hPTPRM: NovaScreen (NVS) Enzymatic Assay for human Protein Tyrosine Phosphatase Receptor Type M (PTPRM) (AID 2283215)
# How it was run: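 Cell-free recombinant PTPRM with fluorogenic substrate; product separated from substrate by electrophoretic mobility shift and read by fluorescence, 1.33 h after dosing. Primary screen single concentration (25 uM) in duplicate; actives retested in concentration series; loss of signal versus DMSO.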
smiles,measurement,setting,value
c1ccc2[nH]c(-c3cscn3)nc2c1,AC50,[1],inconclusive: 25 µM
same,AC50,[2],active: 25 µM
CCN(CC)C(=O)c1cc(S(=O)(=O)Cc2ccccc2)c(N2CCC(c3ccccc3)CC2)cc1N(CC)CCN(C)C,AC50,[3],inconclusive: 23.4 µM
same,AC50,[4],active: 4.57 µM
N#CSCSc1nc2ccccc2s1,outcome,[5],inactive
same,AC50,[6],active: 10.7 µM
CCCCc1oc2ccccc2c1C(=O)c1cc(I)c(OCCN(CC)CC)c(I)c1,AC50,[1],inconclusive: 18.9 µM
N#C[C@@H]1CC(F)(F)CN1C(=O)CNC1CC2CCC(C1)N2c1ncccn1 (some centres not stated),AC50,[3],inconclusive: 25 µM
CCCCCCCCN(C)CCCCCCCC,outcome,[3],inactive
CCN(CC)CCOc1ccc(C(=C(Cl)c2ccccc2)c2ccccc2)cc1,outcome,[4],inactive
Cc1cc(CCN2CCN(c3nsc4ccccc34)CC2)cc2c1NC(=O)CC2(C)C,outcome,[6],inactive
O=C(c1ccc(O)cc1O)c1ccc(O)cc1O,AC50,[2],active: 15 µM
Cc1ccc(N)cc1O,outcome,[7],inactive
same,AC50,[8],inconclusive: 25 µM
same,outcome,[3],inactive
NCC1(Cc2noc(=O)[nH]2)CCCCC1,AC50,[1],inconclusive: 25 µM
same,outcome,[6],inactive
CN(C)C(=O)Nc1ccc(Cl)c(Cl)c1,outcome,[5],inactive
CCC(=C(c1ccc(O)cc1)c1ccc(OCCN(C)C)cc1)c1ccccc1,AC50,[3],inconclusive: 0.451 µM
same,outcome,[4],inactive
O=C(O)c1ccc2c(c1)nc(C(=O)NC1CCN(C3CC3)CC1)n2Cc1cc(-c2ccc(Cl)s2)on1,outcome,[5],inactive
COC(=O)c1c(Cl)c(Cl)c(C(=O)OC)c(Cl)c1Cl,outcome,[1],inactive
O=C(O)Cn1c(=O)n(Cc2ccc(Br)cc2F)c(=O)c2ccc(Cl)cc21,outcome,[3],inactive
O=C(Nc1ccc(Cl)cc1)Nc1ccc(Cl)c(Cl)c1,AC50,[3],inconclusive: 25 µM
same,outcome,[4],inactive
O=c1c(-c2ccc(O)cc2)coc2cc(O)ccc12,AC50,[6],inconclusive: 25 µM
C[C@]12CC[C@@H]3c4ccc(O)cc4CC[C@H]3[C@@H]1CC[C@@H]2O,AC50,[6],inconclusive: 25 µM
CC(C)CCCCCCc1ccc(O)cc1,AC50,[7],inconclusive: 25 µM
same,outcome,[1],inactive
same,AC50,[3],inconclusive: 0.16 µM
same,AC50,[4],inconclusive: 0.446 µM
same,AC50,[2],inconclusive: 25 µM
Cc1nn(C)c(Oc2ccccc2)c1C=NOCc1ccc(C(=O)OC(C)(C)C)cc1,AC50,[3],active: 6.6 µM
same,AC50,[4],inconclusive: 25 µM
CNC(=O)[C@H]1O[C@@H](n2cnc3c(NCc4cc(Cl)ccc4OCc4cc(C)no4)ncnc32)[C@H](O)[C@@H]1N,AC50,[4],inconclusive: 25 µM
same,AC50,[2],inconclusive: 25 µM
COc1cccc(-c2ccc(/C=C\CN3CCCCCC3)cc2Cl)c1,AC50,[3],active: 16.6 µM
same,AC50,[4],active: 3.06 µM
CCOc1ccc2[nH]cc(C(=O)NCc3ccccc3)c(=O)c2n1,outcome,[8],inactive
CC(C)(c1ccc(O)cc1)c1ccc(O)cc1,outcome,[1],inactive
C[C@]12CC[C@@H]3c4ccc(O)cc4CC[C@H]3[C@@H]1CC[C@H]2O,AC50,[1],inconclusive: 11.9 µM
CN(C)C(=O)NC1(c2ccccc2)CCN(CCC[C@]2(c3ccc(Cl)c(Cl)c3)CCCN(C(=O)c3ccccc3)C2)CC1,AC50,[2],inconclusive: 6.25 µM
O=C(c1ccc(OCCN2CCCCC2)cc1)c1c(-c2ccc(O)cc2)sc2cc(O)ccc12,AC50,[8],active: 37.9 µM
same,outcome,[3],inactive
same,AC50,[6],active: 17.8 µM
same,AC50,[4],active: 17.4 µM
COc1ccc2sc(C(=O)Nc3nnn[nH]3)c(OC(C)C)c2c1,AC50,[1],active: 7.67 µM

# Quoted at random: two records from the list.
smiles,measurement,setting,value
CNC(=O)[C@H]1O[C@@H](n2cnc3c(NCc4cc(Cl)ccc4OCc4cc(C)no4)ncnc32)[C@H](O)[C@@H]1N,AC50,[4],inconclusive: 25 µM
O=C(c1ccc(O)cc1O)c1ccc(O)cc1O,AC50,[2],active: 15 µM
